This note sets out measurements from publication PMC10393992 (Nature Communications, 2023).

The target of assay [1] is T1, GST-tagged CIP4-SH3(WT) (Mus musculus) (UniProt Q8CJ53).
T1 sequence: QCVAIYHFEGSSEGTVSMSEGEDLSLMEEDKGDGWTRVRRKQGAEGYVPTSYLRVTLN
As to the kind of experiment: pull-down; GST-tagged CIP4-SH3 (~5 ug) on GSH Sepharose 4B beads mixed with cell lysate containing EGFP-N-WASP; 4 C, 25 min; eluted with 100 mM GSH; western blot with anti-GFP; only the target purified. (In general: Immunoblotting shows a protein as a band on a membrane.)

In assay [2] the target is T2, GST-tagged CIP4-SH3(W524K) (Mus musculus) (UniProt Q8CJ53).
T2 sequence: T1 sequence with W35K
The assay is described as above.

Residue numbers refer to the chain shown, from its start. No constants are given. Whether binding was seen depends on the method and setting. Binding seen in cells or lysates may run through a third protein. Binding calls can cover weak binding; strength is not graded here. Sequences can lack the tags named with a protein.

As to EGFP-fused N-WASP (Homo sapiens), the binding result in assay [1] and in assay [2] was “binds” in each case.
